Record: PubChem BioAssay AID1053208 (Peter MacCallum Cancer Centre, 2014)
Here is an unselected part of about 17,000 deposited reagents. 788 of all reagents (4.7%) were called active. 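Calls rest on z-score classes alone; an extra cut-off of viability at most 70% of control was not applied to them.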 Entries without a mark were called inactive. Not all columns of the deposit are shown.

- Assay: 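Synthetic lethal interactions between gene loss and doxorubicin in osteosarcoma cells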 (primary screen)
- Cells: mouse osteosarcoma cells, early-passage culture from an engineered mouse model of fibroblastic bone tumour
- Reagent: siRNA pool against mouse genes, 40 nM
- Time to read-out: about 120 h (48 h before drug, then 72 h with drug)
- Conditions: doxorubicin 100 nM for 72 h, roughly 30-40% inhibitory dose
- Measurement: 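Viability read as ATP luminescence after 72 h of 100 nM doxorubicin or none, duplicate wells averaged, scaled to non-targeting siRNA, then expressed as robust z-scores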
- Direction: viability z-score with doxorubicin: higher = more viable cells under doxorubicin; viability z-score without drug: higher = more viable cells with knock-down alone
- Active means: 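a pool counts as active when its viability z-score with doxorubicin is -2 or below and its z-score without drug lies between -2 and 2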

After knock-down of Stk32a, the screen gave combined z-score class no change with or without drug; viability z-score with doxorubicin -0.34; viability z-score without drug -0.51.
Depletion of Pank4 resulted in: combined z-score class high cell count with doxorubicin only; viability z-score with doxorubicin 2.14; viability z-score without drug -0.51.
After knock-down of Ager, the screen gave combined z-score class high cell count with doxorubicin only; viability z-score with doxorubicin 2.59; viability z-score without drug 0.34.
Against B4galt6, the entry reads combined z-score class no change with or without drug; viability z-score with doxorubicin -0.45; viability z-score without drug -0.17.
After knock-down of Or4c35, the screen gave combined z-score class no change with or without drug; viability z-score with doxorubicin 0.9; viability z-score without drug -0.51.
Against Tdp2 the deposit lists combined z-score class no change with or without drug; viability z-score with doxorubicin 1.35; viability z-score without drug 1.01.
Against Bhlhe40, the values are combined z-score class no change with or without drug; viability z-score with doxorubicin 1.57; viability z-score without drug 0.17.
Ptx3 scored combined z-score class no change with or without drug; viability z-score with doxorubicin -0.22; viability z-score without drug 0.84.
Clpb gave combined z-score class no change with or without drug; viability z-score with doxorubicin -0.22; viability z-score without drug 0.84.
Knock-down of Thpo resulted in: combined z-score class no change with or without drug; viability z-score with doxorubicin 0; viability z-score without drug 1.18.
Depletion of Fmo5 resulted in: combined z-score class no change with or without drug; viability z-score with doxorubicin 0.45; viability z-score without drug 0.84.
For Tex13b the deposit lists combined z-score class no change with or without drug; viability z-score with doxorubicin 1.35; viability z-score without drug -0.17.

Ordered by “viability z-score with doxorubicin” (high to low): some entries from above
Thpo → combined z-score class: no change with or without drug; viability z-score with doxorubicin: 0; viability z-score without drug: 1.18
Clpb → combined z-score class: no change with or without drug; viability z-score with doxorubicin: -0.22; viability z-score without drug: 0.84
